Data: patent publication US4309432A, “Compositions for treating glaucoma containing a carbostyril” (priority 1979, dated 1982)
Several values for one entry are separate records, joined by “and”; a condition that tells them apart may be missing. Equal entries are not always repeated. Structures can show the parent of a compound that is named as a salt. At least one read-out could not be matched to a standard name with certainty.

Each compound was assayed on intraocular pressure (assay: Efficacy Test 3: intraocular pressure in normal rabbits (Alcon pneumatic tonometer)). Settings: individual animal; 1% (W/V), 100 μl.
Type: in vivo, rabbit (male New Zealand Albino)
Experimental: Male rabbits of New Zealand Albino strain, weighing 1.8 to 2.5 kg, are used as experimental animals. Intraocular pressure is measured with an Alcon pneumatic tonometer without local anesthesia, while holding the animal in a cylindrical rabbit holder.
The test compound is dissolved in a physiological solution of NaCl to a concentration of 1% (W/V), and the resulting solution is adjusted to a pH of 6.5 to 7.0 with a 0.01 N aqueous NaOH solution. The solution is instilled to one of the eyes of the animal in an accurate amount of 100 μl with a microsyringe after measuring the intraocular pressure of the eye. The eyelid is held closed for 1 minute after the instillation to prevent the escape of the solution.
The efficacy of the test compound is determined by measuring the intraocular pressure 30 minutes and 1 hour after the instillation and comparing the measurements with the pressure measured before the instillation. A 100 μl quantity of physiological saline containing no test compound is similarly tested on a control group.

Row | SMILES | Intraocular pressure 30 minutes after instillation | Intraocular pressure 1 hour after instillation
1 | COc1ccc(CCNCC(O)COc2ccc(OCC(C)=O)c3c2CCC(=O)N3)cc1OC (stereo not drawn) [Compound C, 8-Methylcarbonylmethoxy-5-[2-hydroxy-3-(β-3,4-dimethoxyphenethylamino)]propoxy-3,4-dihydrocarbostyril oxalate] | 18 mm Hg and 16 mm Hg | 17 mm Hg and 18 mm Hg
2 | CCNCC(O)COc1cccc2c1CCC(=O)N2 (stereo not shown) [Compound E, 5-(2-Hydroxy-3-ethylamino)propoxy-3,4-dihydrocarbostyril maleate] | 19 mm Hg and 17 mm Hg | 18 mm Hg and 16 mm Hg

Same assay, conditions: individual animal; 1% (W/V), 100 μl; hydrochloride

Row | SMILES | Intraocular pressure 30 minutes after instillation | Intraocular pressure 1 hour after instillation
3 | CC(C)(C)NCC(O)COc1cccc2c1CCC(=O)N2 (stereo not shown) [Compound A, 5-(2-Hydroxy-3-tert-butylamino)propoxy-3,4-dihydrocarbostyril hydrochloride] | 20 mm Hg and 17 mm Hg and 16 mm Hg | 20 mm Hg and 18 mm Hg and 15 mm Hg and 16 mm Hg
4 | CC(C)(C)NCC(O)COc1cccc2[nH]c(=O)ccc12 (stereo not shown) [Compound B, 5-(2-Hydroxy-3-tert-butylamino)propoxycarbostyril hydrochloride] | 16 mm Hg and 18 mm Hg | 16 mm Hg and 17 mm Hg
5 | COc1ccc(CCNCC(O)COc2ccc(O)c3c2CCC(=O)N3)cc1OC (stereo not drawn) [Compound D, 8-Hydroxy-5-[2-hydroxy-3-(β-3,4-dimethoxyphenethylamino)]propoxy-3,4-dihydrocarbostyril hydrochloride] | – | 13 mm Hg and 15 mm Hg
6 | O=C1CCc2c(cccc2OCC(O)CNCc2ccccc2)N1 (stereo not shown) [Compound F, 5-(2-Hydroxy-3-benzylamino)propoxy-3,4-dihydrocarbostyril hydrochloride] | 19 mm Hg and 18 mm Hg | 19 mm Hg and 18 mm Hg
7 | O=C1CCc2c(cccc2OCC(O)CNC2CCCCC2)N1 (stereo not shown) [Compound G, 5-(2-Hydroxy-3-cyclohexylamino)propoxy-3,4-dihydrocarbostyril hydrochloride] | 16 mm Hg and 17 mm Hg | 16 mm Hg and 17 mm Hg
8 | CCN1C(=O)CCc2c(OCC(O)CNC3CCCCC3)cccc21 (stereo not shown) [Compound H, 1-Ethyl-5-(2-hydroxy-3-cyclohexylamino)propoxy-3,4-dihydrocarbostyril hydrochloride] | 16 mm Hg and 15 mm Hg | 16 mm Hg and 15 mm Hg
9 | CC(C)NCC(O)COc1cccc2c1NC(=O)CC2 (stereo not shown) [Compound I, 8-(2-Hydroxy-3-isopropylamino)propoxy-3,4-dihydrocarbostyril hydrochloride] | 17 mm Hg and 16 mm Hg | 16 mm Hg and 17 mm Hg
10 | COc1ccc(CCNCC(O)COc2ccc(NC(N)=O)c3c2CCC(=O)N3)cc1OC (stereo not drawn) [Compound J, 8-Ureido-5-[2-hydroxy-3-(β-3,4-dimethoxyphenethylamino)]propoxy-3,4-dihydrocarbostyril hydrochloride] | 17 mm Hg and 18 mm Hg | 16 mm Hg and 18 mm Hg
11 | COc1ccc(CCNCC(O)COc2ccc(NC(C)=O)c3c2CCC(=O)N3)cc1OC (stereo not drawn) [Compound L, 8-Acetylamino-5-[2-hydroxy-3-(β-3,4-dimethoxyphenethylamino)]propoxy-3,4-dihydrocarbostyril hydrochloride] | – | 17 mm Hg and 18 mm Hg
12 | C=CCN1C(=O)CCc2c(OCC(O)CNC(C)(C)C)cccc21 (stereo not shown) [Compound N, 1-Allyl-5-(2-hydroxy-3-tert-butylamino)propoxy-3,4-dihydrocarbostyril hydrochloride] | 18 mm Hg and 17 mm Hg | 17 mm Hg and 16 mm Hg
